Results are given in words; binding and its absence hold for the method and conditions named. Binding seen in cells or lysates may run through a third protein. Binding can be weak; no strength is given.
Biological target: HAdV-C5 E1B-55K (human adenovirus C5 (HAdV-C5)) (UniProt P03243)
Assay: co-IP

By UniProt entry, the sequences of proteins in these tests, tags left out. Where a name states a change or a piece, a line headed by the entry shows the natural chain unless it says otherwise.
UniProt O95202: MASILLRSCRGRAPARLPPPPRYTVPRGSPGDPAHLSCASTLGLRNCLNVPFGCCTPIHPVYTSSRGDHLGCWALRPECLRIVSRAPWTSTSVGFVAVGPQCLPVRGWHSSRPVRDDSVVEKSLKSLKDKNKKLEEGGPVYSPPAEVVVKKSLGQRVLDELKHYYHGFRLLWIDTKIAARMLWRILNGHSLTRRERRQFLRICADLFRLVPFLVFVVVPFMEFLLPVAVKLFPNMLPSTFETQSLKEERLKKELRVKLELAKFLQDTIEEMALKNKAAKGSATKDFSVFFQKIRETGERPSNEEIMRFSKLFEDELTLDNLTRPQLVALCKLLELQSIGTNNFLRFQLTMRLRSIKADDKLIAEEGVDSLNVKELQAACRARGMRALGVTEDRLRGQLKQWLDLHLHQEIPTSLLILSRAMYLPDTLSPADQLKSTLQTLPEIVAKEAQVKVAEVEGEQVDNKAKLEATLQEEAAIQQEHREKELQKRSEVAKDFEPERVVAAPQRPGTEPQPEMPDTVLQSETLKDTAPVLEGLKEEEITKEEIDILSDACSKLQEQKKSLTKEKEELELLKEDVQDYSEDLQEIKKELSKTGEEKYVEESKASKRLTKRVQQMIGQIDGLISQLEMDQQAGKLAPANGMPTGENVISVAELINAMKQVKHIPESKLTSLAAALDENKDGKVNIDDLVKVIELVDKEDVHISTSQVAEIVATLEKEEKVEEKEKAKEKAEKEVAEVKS

LETM1 (from UniProt O95202) was tested, and the binding was “binds”.

From publication PMC10747525
